Assay results from the supplement of paper PMC10849652.
Some of the results follow.

Amino acid sequences for entries named in this document (tags omitted). A change or cut given only in a name is not applied to a line headed by its entry.
UniProt Q16560: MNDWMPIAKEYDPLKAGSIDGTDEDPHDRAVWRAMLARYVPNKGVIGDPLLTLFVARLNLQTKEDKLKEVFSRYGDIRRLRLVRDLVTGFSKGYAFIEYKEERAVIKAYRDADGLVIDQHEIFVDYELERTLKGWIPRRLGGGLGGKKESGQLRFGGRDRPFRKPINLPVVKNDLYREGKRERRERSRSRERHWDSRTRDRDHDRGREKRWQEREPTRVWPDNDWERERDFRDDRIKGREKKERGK
UniProt Q16533: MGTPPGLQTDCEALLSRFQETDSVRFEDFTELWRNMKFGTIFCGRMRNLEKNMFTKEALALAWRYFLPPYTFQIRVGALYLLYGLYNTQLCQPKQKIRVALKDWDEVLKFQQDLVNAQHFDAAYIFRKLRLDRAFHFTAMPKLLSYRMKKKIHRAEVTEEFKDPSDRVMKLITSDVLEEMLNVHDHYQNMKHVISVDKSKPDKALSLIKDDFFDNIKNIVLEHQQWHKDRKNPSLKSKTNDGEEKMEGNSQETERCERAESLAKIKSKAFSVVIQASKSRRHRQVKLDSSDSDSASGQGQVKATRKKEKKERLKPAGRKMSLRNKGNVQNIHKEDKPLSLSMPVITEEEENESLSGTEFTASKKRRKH
UniProt O75971: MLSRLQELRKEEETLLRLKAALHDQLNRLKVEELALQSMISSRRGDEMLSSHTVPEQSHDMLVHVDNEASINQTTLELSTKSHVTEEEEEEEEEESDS
UniProt Q9BV90: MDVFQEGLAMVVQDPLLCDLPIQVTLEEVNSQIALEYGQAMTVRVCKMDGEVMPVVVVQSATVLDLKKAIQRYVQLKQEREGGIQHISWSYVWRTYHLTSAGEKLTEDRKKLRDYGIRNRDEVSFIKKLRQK
UniProt Q9Y5X0: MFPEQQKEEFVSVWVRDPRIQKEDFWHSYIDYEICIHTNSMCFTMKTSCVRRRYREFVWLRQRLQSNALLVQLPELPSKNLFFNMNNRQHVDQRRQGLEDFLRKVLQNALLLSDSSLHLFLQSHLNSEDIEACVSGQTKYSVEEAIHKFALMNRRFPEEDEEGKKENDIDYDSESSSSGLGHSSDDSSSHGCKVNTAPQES
UniProt Q6STE5, whole entry, looked up: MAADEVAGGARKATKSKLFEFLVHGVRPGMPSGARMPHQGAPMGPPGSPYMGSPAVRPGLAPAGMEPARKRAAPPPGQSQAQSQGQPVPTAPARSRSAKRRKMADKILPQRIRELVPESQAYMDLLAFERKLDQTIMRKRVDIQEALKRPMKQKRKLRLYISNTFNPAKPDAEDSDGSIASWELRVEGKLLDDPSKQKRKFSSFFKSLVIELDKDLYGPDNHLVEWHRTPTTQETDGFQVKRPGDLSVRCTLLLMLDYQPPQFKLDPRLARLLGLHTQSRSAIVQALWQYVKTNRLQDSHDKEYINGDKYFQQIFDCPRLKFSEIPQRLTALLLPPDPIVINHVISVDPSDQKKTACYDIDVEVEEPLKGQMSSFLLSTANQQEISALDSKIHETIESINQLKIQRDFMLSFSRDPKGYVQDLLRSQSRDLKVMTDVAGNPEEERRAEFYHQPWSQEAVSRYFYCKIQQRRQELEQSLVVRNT
UniProt Q5SQN1: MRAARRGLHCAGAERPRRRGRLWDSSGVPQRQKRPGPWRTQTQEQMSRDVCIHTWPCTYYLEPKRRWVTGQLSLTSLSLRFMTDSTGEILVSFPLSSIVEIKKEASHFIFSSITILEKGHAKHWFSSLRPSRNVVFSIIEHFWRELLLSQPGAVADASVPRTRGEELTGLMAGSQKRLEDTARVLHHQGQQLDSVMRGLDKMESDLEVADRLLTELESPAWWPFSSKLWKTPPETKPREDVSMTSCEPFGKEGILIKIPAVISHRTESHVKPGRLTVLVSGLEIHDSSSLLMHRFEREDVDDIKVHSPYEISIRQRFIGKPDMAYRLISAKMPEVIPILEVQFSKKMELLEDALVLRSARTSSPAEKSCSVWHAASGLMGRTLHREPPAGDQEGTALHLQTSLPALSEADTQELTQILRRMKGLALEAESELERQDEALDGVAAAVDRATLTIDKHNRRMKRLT
UniProt P35712: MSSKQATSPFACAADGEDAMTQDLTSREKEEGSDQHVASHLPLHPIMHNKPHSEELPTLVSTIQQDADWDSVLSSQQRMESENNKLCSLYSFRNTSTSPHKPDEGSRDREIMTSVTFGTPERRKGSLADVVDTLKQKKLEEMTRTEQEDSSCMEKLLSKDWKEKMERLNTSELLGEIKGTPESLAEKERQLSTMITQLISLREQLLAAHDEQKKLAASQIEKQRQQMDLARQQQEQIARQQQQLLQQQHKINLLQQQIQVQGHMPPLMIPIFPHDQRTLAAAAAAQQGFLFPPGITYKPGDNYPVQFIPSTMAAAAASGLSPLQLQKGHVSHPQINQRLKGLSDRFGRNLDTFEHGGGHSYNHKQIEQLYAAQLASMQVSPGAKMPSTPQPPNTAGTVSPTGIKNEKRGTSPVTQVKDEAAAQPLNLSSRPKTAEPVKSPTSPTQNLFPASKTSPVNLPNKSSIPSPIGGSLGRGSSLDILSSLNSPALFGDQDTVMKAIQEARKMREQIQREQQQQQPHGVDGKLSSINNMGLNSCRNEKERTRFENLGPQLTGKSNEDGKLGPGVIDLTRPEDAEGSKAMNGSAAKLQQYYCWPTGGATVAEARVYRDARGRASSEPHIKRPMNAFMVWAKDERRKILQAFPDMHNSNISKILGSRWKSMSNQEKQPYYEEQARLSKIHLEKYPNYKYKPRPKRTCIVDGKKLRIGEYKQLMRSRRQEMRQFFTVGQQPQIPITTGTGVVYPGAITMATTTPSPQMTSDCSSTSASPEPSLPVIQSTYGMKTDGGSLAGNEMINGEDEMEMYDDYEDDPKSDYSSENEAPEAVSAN
UniProt P09486: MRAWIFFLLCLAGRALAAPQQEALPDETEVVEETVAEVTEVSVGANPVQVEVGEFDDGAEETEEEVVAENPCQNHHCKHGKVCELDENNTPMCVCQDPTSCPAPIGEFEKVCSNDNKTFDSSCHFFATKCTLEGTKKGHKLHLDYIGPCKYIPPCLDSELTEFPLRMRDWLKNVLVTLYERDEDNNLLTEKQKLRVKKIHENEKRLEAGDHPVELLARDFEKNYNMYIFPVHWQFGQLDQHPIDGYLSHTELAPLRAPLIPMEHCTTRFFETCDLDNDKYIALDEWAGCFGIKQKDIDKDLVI
UniProt P0DMW3: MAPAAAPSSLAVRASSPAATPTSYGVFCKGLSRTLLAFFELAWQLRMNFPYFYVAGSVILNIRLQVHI
UniProt P02814: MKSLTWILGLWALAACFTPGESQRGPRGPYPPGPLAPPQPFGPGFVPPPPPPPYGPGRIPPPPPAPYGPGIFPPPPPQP
UniProt Q9Y5W8: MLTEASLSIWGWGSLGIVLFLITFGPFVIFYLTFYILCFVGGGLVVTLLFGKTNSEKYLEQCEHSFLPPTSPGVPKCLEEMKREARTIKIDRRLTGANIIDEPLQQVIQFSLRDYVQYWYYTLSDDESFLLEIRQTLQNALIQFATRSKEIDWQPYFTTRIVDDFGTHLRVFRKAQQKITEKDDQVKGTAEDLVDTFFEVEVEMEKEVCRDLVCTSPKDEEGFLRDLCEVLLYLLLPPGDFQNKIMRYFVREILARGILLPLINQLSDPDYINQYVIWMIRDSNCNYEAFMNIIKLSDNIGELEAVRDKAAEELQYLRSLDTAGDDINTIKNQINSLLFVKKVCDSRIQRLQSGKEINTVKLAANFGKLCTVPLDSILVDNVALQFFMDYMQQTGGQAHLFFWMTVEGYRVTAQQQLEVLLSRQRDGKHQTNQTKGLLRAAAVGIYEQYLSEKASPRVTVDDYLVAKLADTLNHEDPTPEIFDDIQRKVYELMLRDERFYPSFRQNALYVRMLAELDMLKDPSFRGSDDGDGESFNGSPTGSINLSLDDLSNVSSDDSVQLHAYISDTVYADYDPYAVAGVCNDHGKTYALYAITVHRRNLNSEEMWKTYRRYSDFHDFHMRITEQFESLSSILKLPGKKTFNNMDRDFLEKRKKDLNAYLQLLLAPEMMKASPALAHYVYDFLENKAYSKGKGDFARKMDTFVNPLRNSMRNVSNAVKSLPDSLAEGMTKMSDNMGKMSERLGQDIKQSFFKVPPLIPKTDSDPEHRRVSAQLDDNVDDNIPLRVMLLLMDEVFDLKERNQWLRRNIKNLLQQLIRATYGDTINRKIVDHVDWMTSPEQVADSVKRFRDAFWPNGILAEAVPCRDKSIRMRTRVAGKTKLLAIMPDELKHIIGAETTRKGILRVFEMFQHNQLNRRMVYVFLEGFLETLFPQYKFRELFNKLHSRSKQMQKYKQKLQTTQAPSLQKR
UniProt Q9H3E2: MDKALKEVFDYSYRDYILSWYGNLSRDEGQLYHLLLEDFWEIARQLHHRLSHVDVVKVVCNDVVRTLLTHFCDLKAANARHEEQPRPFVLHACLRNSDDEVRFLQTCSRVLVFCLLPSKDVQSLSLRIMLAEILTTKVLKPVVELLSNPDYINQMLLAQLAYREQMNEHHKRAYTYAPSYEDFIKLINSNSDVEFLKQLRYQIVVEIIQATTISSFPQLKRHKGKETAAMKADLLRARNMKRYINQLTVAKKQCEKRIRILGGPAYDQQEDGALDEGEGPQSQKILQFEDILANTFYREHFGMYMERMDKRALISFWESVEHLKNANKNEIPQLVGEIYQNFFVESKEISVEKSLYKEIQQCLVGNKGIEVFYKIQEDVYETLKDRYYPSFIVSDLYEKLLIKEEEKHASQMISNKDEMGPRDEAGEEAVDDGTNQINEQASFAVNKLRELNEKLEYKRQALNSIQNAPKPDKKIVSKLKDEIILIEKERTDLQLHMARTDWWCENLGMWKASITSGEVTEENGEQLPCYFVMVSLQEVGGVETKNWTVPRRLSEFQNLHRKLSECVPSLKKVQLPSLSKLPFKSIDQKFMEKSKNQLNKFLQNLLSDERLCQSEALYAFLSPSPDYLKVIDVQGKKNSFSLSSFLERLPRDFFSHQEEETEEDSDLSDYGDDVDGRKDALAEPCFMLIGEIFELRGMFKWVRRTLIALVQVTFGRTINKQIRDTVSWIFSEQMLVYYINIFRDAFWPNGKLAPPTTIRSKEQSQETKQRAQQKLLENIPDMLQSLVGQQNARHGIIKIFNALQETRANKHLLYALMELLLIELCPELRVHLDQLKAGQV
UniProt Q8TAD8: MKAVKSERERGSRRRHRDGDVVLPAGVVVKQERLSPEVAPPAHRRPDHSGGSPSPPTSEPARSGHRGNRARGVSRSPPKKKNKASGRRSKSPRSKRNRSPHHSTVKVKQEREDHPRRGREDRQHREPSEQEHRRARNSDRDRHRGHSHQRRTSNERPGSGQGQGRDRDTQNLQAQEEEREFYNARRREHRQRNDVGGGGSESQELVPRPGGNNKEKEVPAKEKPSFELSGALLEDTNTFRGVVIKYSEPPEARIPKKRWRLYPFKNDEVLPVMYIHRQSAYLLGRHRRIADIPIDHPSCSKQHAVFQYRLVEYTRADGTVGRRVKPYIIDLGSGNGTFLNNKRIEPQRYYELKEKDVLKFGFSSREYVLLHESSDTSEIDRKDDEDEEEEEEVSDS
UniProt Q92966: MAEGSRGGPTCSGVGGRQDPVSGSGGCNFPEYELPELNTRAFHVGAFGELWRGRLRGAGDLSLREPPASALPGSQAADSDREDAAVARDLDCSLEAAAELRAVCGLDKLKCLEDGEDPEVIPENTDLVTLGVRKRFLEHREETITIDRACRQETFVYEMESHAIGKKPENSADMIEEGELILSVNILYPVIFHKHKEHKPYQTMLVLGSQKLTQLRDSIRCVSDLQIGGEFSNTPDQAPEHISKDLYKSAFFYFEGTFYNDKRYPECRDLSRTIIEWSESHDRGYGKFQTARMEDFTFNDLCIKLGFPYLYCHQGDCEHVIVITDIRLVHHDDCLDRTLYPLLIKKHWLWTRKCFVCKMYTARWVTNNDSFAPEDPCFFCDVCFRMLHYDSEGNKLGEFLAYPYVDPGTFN
UniProt Q8WV41: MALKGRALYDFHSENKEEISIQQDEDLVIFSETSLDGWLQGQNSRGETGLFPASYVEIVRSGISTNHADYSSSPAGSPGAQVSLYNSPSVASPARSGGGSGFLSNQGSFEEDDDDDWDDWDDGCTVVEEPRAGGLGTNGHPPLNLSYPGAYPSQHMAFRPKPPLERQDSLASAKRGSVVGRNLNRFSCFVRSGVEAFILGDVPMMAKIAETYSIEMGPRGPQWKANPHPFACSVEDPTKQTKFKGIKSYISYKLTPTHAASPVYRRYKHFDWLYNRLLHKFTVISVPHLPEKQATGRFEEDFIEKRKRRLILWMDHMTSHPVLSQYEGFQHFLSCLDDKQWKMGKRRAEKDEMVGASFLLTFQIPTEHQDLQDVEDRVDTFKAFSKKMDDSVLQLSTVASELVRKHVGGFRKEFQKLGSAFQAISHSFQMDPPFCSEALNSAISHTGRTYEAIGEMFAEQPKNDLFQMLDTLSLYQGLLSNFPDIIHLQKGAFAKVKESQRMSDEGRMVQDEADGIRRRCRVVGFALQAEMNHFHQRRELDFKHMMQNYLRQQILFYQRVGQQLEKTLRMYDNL

Key:
Test in all cases: log2 fold change, soluble protein after heating vs DMSO (PISA); higher = thermal stabilisation; K562 lysate, 10 uM; active = over 0.2 and 3.5 SD of the protein, either way, in both replicates (recomputed)
[1] = compound: C[C@H](C1=CC=C(C=C1)C(=O)NC2=C3C=CNC3=NC=C2)N
Summary of the method: (§1)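 Quantification was by TMTpro 16plex LC-MS/MS with equalised channel sums, applied to the supernatant after 21,000xg for 90 min. Samples were crude K562 extract at 1 mg/mL protein in PBS pH 7.4 with 1 mM MgCl2, treated with 10 μM compound for 30 min, heated for 3 min across 48°C-58°C, pooled and brought to 0.5% NP-40 at 4°C. Values are log-two fold changes in thermal stability relative to solvent controls, from duplicates.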

duvelisib = compound: C[C@H](Nc1ncnc2nc[nH]c12)c1cc2cccc(Cl)c2c(=O)n1-c1ccccc1 [duvelisib]
Summary of the method: as §1

gandotinib = compound: Cc1cc(Nc2cc(CN3CCOCC3)c3nc(C)c(Cc4ccc(Cl)cc4F)n3n2)n[nH]1 [gandotinib]
Summary of the method: as §1

[2] = compound: Cc1cccc(CC(=O)N2CCc3c2ccc(-c2cn(C)c4ncnc(N)c24)c3F)n1
Summary of the method: as §1

nilotinib = compound: Cc1cn(-c2cc(NC(=O)c3ccc(C)c(Nc4nccc(-c5cccnc5)n4)c3)cc(C(F)(F)F)c2)cn1 [nilotinib]
Summary of the method: as §1

[3] = compound: Cc1nc(Nc2n[nH]c3c2CN(C(=O)N[C@H](CN(C)C)c2ccccc2)C3(C)C)c2sccc2n1
Summary of the method: as §1

dasatinib = compound: Cc1nc(Nc2ncc(C(=O)Nc3c(C)cccc3Cl)s2)cc(N2CCN(CCO)CC2)n1 [dasatinib]
Summary of the method: as §1

[4] = compound: Cc1ncc(-c2ccnc(Nc3ccc(S(C)(=O)=O)cc3)n2)n1C(C)C
Summary of the method: as §1

[5] = compound: Cn1cc(-c2ccc3c(c2)CCN3C(=O)Cc2cccc(C(F)(F)F)c2)c2c(N)ncnc21
Summary of the method: as §1

tipifarnib = compound: Cn1cncc1[C@@](N)(c1ccc(Cl)cc1)c1ccc2c(c1)c(-c1cccc(Cl)c1)cc(=O)n2C [tipifarnib]
Summary of the method: as §1

crizotinib = compound: C[C@@H](Oc1cc(-c2cnn(C3CCNCC3)c2)cnc1N)c1c(Cl)ccc(F)c1Cl [crizotinib]
Summary of the method: as §1

doramapimod = compound: Cc1ccc(-n2nc(C(C)(C)C)cc2NC(=O)Nc2ccc(OCCN3CCOCC3)c3ccccc23)cc1 [doramapimod]
Summary of the method: as §1

quisinostat = compound: Cn1cc(CNCC2CCN(c3ncc(C(=O)NO)cn3)CC2)c2ccccc21 [quisinostat]
Summary of the method: as §1

[6] = compound: NC(=O)Nc1cc(-c2cccc(F)c2)sc1C(=O)N[C@H]1CCCNC1
Summary of the method: as §1

pictilisib = compound: CS(=O)(=O)N1CCN(Cc2cc3nc(-c4cccc5[nH]ncc45)nc(N4CCOCC4)c3s2)CC1 [pictilisib]
Summary of the method: as §1

bafetinib = compound: Cc1ccc(NC(=O)c2ccc(CN3CC[C@H](N(C)C)C3)c(C(F)(F)F)c2)cc1Nc1nccc(-c2cncnc2)n1 [bafetinib]
Summary of the method: as §1

[7] = compound: NC1(c2ccc(-c3nc4ccn5c(=O)[nH]nc5c4cc3-c3ccccc3)cc2)CCC1
Summary of the method: as §1

tozasertib = compound: Cc1cc(Nc2cc(N3CCN(C)CC3)nc(Sc3ccc(NC(=O)C4CC4)cc3)n2)n[nH]1 [tozasertib]
Summary of the method: as §1

Measured: log2 fold change

SNRNP35 isoform 2 (UniProt Q16560)
inactive: [1] -0.068 | duvelisib 0.054 | gandotinib 0.065 | [2] 0.105 | nilotinib 0.147 | [3] -0.065 | dasatinib 0.057 | [4] 0.159 | [5] 0.161 | tipifarnib -0.064

SNAPC1 (UniProt Q16533)
inactive: crizotinib 0.077 | doramapimod -0.066 | nilotinib -0.099 | [3] 0.133 | [4] -0.206 | quisinostat -0.1 | tipifarnib -0.011 | [6] 0.07

SNAPC5 (UniProt O75971)
inactive: [1] 0.111 | gandotinib -0.162 | [2] -0.073 | nilotinib 0.059 | [3] 0.263 | [4] 0.066 | tipifarnib -0.17

SNRNP25 (UniProt Q9BV90)
inactive: pictilisib 0.037 | bafetinib -0.095 | nilotinib 0.02 | [3] 0.078 | [4] 0.061 | tipifarnib 0.094

SNX10 (UniProt Q9Y5X0)
inactive: crizotinib -0.064 | duvelisib -0.04 | doramapimod 0.002 | dasatinib -0.156 | [5] 0.144 | quisinostat -0.238 | [6] 0.084 | [7] 0.018

SMARCD3 (UniProt Q6STE5)
inactive: duvelisib -0.014 | dasatinib 0.017 | [5] 0.018 | [7] -0.048

SNAP47 (UniProt Q5SQN1)
inactive: pictilisib -0.061 | crizotinib -0.035 | [1] -0.243 | duvelisib -0.028 | gandotinib 0.165 | tozasertib -0.17 | doramapimod 0.046 | bafetinib 0.017 | [2] 0.051 | nilotinib -0.009 | [3] -0.022 | dasatinib -0.036 | [4] 0 | [5] 0.053 | quisinostat -0.041 | tipifarnib -0.004 | [6] 0.027 | [7] 0.037

SOX7 isoform 2 (UniProt Q9BT81)
inactive: pictilisib -0.016 | [1] 0.209 | gandotinib -0.147 | bafetinib -0.052 | [2] -0.165 | nilotinib 0.071 | [3] 0.076 | [4] 0.148 | tipifarnib 0.055 | [7] -0.147

SOX6 (UniProt P35712)
inactive: pictilisib -0.141 | crizotinib -0.119 | [1] -0.042 | duvelisib -0.123 | gandotinib 0.04 | tozasertib 0.043 | doramapimod 0.084 | bafetinib -0.026 | [2] 0.005 | nilotinib 0.092 | [3] 0.14 | dasatinib 0.066 | [4] -0.076 | [5] 0.026 | quisinostat -0.149 | tipifarnib 0.024 | [6] -0.049 | [7] -0.122

SPARC (UniProt P09486)
inactive: pictilisib 0.025 | crizotinib 0.054 | [1] 0.057 | duvelisib 0.024 | gandotinib -0.045 | tozasertib 0.062 | doramapimod -0.062 | bafetinib -0.075 | [2] 0.049 | dasatinib 0.003 | [5] 0.021 | quisinostat 0.094 | [6] 0.059 | [7] -0.071

Copied from the results shown (four entries):
SMARCD3 (UniProt Q6STE5)
inactive: duvelisib -0.014 | dasatinib 0.017 | [5] 0.018 | [7] -0.048

SNAP47 (UniProt Q5SQN1)
inactive: pictilisib -0.061 | crizotinib -0.035 | [1] -0.243 | duvelisib -0.028 | gandotinib 0.165 | tozasertib -0.17 | doramapimod 0.046 | bafetinib 0.017 | [2] 0.051 | nilotinib -0.009 | [3] -0.022 | dasatinib -0.036 | [4] 0 | [5] 0.053 | quisinostat -0.041 | tipifarnib -0.004 | [6] 0.027 | [7] 0.037

SOX7 isoform 2 (UniProt Q9BT81)
inactive: pictilisib -0.016 | [1] 0.209 | gandotinib -0.147 | bafetinib -0.052 | [2] -0.165 | nilotinib 0.071 | [3] 0.076 | [4] 0.148 | tipifarnib 0.055 | [7] -0.147

SOX6 (UniProt P35712)
inactive: pictilisib -0.141 | crizotinib -0.119 | [1] -0.042 | duvelisib -0.123 | gandotinib 0.04 | tozasertib 0.043 | doramapimod 0.084 | bafetinib -0.026 | [2] 0.005 | nilotinib 0.092 | [3] 0.14 | dasatinib 0.066 | [4] -0.076 | [5] 0.026 | quisinostat -0.149 | tipifarnib 0.024 | [6] -0.049 | [7] -0.122

(list continues)

SMIM10L1 (UniProt P0DMW3)
inactive: [1] 0.143 | gandotinib -0.108 | [2] 0.106

SMR3B (UniProt P02814)
inactive: crizotinib 0.17 | [1] -0.015 | gandotinib -0.321 | tozasertib -0.015 | doramapimod -0.016 | [2] 0.01 | quisinostat -0.277 | [6] 0.066

SNX13 (UniProt Q9Y5W8)
inactive: pictilisib -0.117 | crizotinib -0.075 | duvelisib -0.066 | doramapimod 0.118 | bafetinib -0.124 | dasatinib 0.066 | [5] -0.061 | quisinostat 0.083 | [6] 0.01 | [7] 0.023

SPAG9 isoform 4 (UniProt O60271)
inactive: pictilisib 0.046 | crizotinib 0.109 | [1] -0.067 | gandotinib -0.008 | tozasertib -0.013 | doramapimod 0.011 | bafetinib 0.031 | [2] 0.033 | quisinostat 0.023 | [6] 0.054

SMIM26, A0A096LP01
inactive: [1] -0.047 | gandotinib -0.064 | [2] -0.012 | nilotinib 0.158 | [3] 0.073 | [4] -0.092 | tipifarnib -0.059

SNX25 (UniProt Q9H3E2)
inactive: crizotinib 0.061 | duvelisib -0.037 | tozasertib 0.01 | doramapimod -0.058 | dasatinib -0.036 | [5] 0.046 | quisinostat 0.097 | [6] 0.025 | [7] 0.072

SNAPC2 (UniProt Q13487)
inactive: pictilisib 0.08 | crizotinib -0.007 | [1] 0.024 | duvelisib -0.129 | gandotinib 0.01 | doramapimod 0.03 | bafetinib -0.537 | [2] -0.033 | nilotinib 0.066 | [3] 0 | dasatinib -0.24 | [4] -0.067 | [5] -0.122 | quisinostat -0.021 | tipifarnib -0.106 | [6] 0.029 | [7] 0

SNIP1 (UniProt Q8TAD8)
inactive: nilotinib -0.1 | [3] 0.037 | [4] -0.078 | tipifarnib -0.149

SNX19 (UniProt Q92543)
inactive: crizotinib 0.021 | [1] -0.165 | duvelisib -0.027 | gandotinib 0.032 | tozasertib -0.067 | doramapimod -0.042 | [2] 0.047 | nilotinib -0.045 | [3] -0.08 | dasatinib 0.018 | [4] 0.084 | [5] 0.11 | quisinostat -0.008 | tipifarnib 0.013 | [6] 0.071 | [7] 0.089

SNAPC3 (UniProt Q92966)
inactive: pictilisib 0.146 | crizotinib 0.085 | [1] -0.056 | duvelisib -0.033 | gandotinib -0.098 | tozasertib 0.133 | doramapimod -0.036 | bafetinib -0.059 | [2] 0.059 | nilotinib -0.035 | [3] -0.053 | dasatinib -0.049 | [4] 0.042 | [5] -0.105 | quisinostat -0.053 | tipifarnib -0.044 | [6] 0.081 | [7] 0.094

SNX33 (UniProt Q8WV41)
inactive: pictilisib 0.033 | crizotinib -0.058 | duvelisib 0.085 | doramapimod -0.035 | bafetinib -0.001 | nilotinib 0.021 | [3] -0.066 | dasatinib 0.041 | [4] -0.015 | [5] -0.047 | quisinostat -0.151 | tipifarnib 0.067 | [6] 0.139
